{"source": "patent US5962504A", "about": "“Substituted 2-pyrrolidinone activators of PKC” (Georgetown University, priority 1998, dated 1999)", "biological_target": "PKC", "test": "ability of representative compounds to activate PKC (Ki, Table 1; procedure similar to Kozikowski et al. J. Med. Chem. 1997)", "format": "binding", "conditions": "read-out: Ki ± SEM", "note": "At least one structure is not confirmed: it was looked up by name or label, or the drawing left a doubt.", "data": [{"smiles": "CCCCCC#Cc1ccc([C@@H]2[C@@H](C(C)C)C(=O)N[C@@H]2CO)c2ccccc12", "note": "[Compound 11d, (3R,4S,5S)-3-Isopropyl-4-[4-(heptyn-1-yl)naphth-1-yl]-5-(hydroxymethyl)pyrrolidin-2-one]", "values": [{"measurement": "Ki", "result": 1500, "unit": "nM"}]}]}
